Consider 47 sequences from the supplement of paper PMC7877785.

The data set in a line: self-splicing fitness, log relative to wild type (ln ratio); higher = more splicing; Tetrahymena group I intron in knt gene, E. coli kanamycin selection, DiMSum; sequences stand for … in CUCUCU…GGAGGGAAAAGUUAUCAGGCAUGCACCUGGUAGCUAGUCUUUAAACCAAUAGAUUGCAUCGGUUUAAAAGGCAAGACCGUCAAAUUGCGGGAAAGGGGUCAACAGCCGUUCAGUACCAAGUCUCAGGGGAAACUUUGAGAUGGCCUUGCAAAGGGUAUGGUAAUAAGCUGACGGACAUGGUCCUAACCACGCAGCCAAGUCCUAAGUCAACAGAUCUUCUGUUGAUAUGGAUGCAGUUCACAGACUAAAUGUCGGUCGGGGAAGAUGUAUUCUUCUCAUAAGAUAUAGUCGGACCUCUCCUUAAUGGGAGCUAGCGGAUGAAGUGAUGCAACACUGGAGCCGCUGGGAACUAAUUUGUAUGCGAAAGUAUAUUGAUUAGUUUUGGAGUACUCGUGGUCG
The essentials:
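Six replicate transformations of E. coli BL21(DE3) with a pET-22b(+) library were grown overnight at 37°C or 30°C. The library randomised all eight P1ex-region intron nucleotides, the intron lying in the knt kanamycin-resistance gene, and plates were LB agar with or without 25 μg/mL kanamycin plus 100 μg/mL carbenicillin, 50 μM IPTG and 0.2% rhamnose. Pooled colonies were amplicon-sequenced on an Illumina HiSeq 2500, and fitness is the DiMSum error-weighted combination of wild-type-normalised replicate fold changes, kanamycin versus none.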

± gives the uncertainty stated by the source. Many of these values have a large error.

For UAACAGCAAUAUUACGUUGC, the “self-splicing fitness (ln)” value (30 °C) is -4.97 ± 0.51.
On to GUGUAGCAAUAUUACGUCGC, for which the “self-splicing fitness (ln)” value (30 °C) is -2.48 ± 0.26 and the “self-splicing fitness (ln)” value (37 °C) was -2.59 ± 0.54.
With GAAUAGCAAUAUUACGCCGC, under “30 °C”, the “self-splicing fitness (ln)” value was -3.36 ± 0.6.
Consider UUGUAGCAAUAUUACGUAGU, for which the “self-splicing fitness (ln)” value is, setting by setting: (30 °C) -5 ± 0.71; (37 °C) -3.53 ± 0.6.
As to CCAGAGCAAUAUUACGCUUC, the “self-splicing fitness (ln)” value (37 °C) is -4.72 ± 0.72.
As to GAAGAGCAAUAUUACGCUCC, the “self-splicing fitness (ln)” value (37 °C) was -1.92 ± 0.66.
For GGGGAGCAAUAUUACGACCG, the “self-splicing fitness (ln)” value (37 °C) was -0.046 ± 0.9.
As to UUGUAGCAAUAUUACGUUCC, the “self-splicing fitness (ln)” value (37 °C) is -0.681 ± 1.
With UUGUAGCAAUAUUACGGCUA, the “self-splicing fitness (ln)” value (30 °C) is -2.72 ± 0.58.
Turning to CGCUAGCAAUAUUACGCGAC, the “self-splicing fitness (ln)” value is, setting by setting: (30 °C) -3.92 ± 0.52; (37 °C) -2.13 ± 0.65.
As for CUGGAGCAAUAUUACGACGU, where the note is “30 °C”, the “self-splicing fitness (ln)” value was -4.83 ± 0.51.
On the same count and under the same terms, for AGCGAGCAAUAUUACGCAUA the value was -2.86 ± 0.61.
In the case of CCGGAGCAAUAUUACGCGCU, where the note is “37 °C”, the “self-splicing fitness (ln)” value is -3.19 ± 0.6.
As for CCGAAGCAAUAUUACGUGAC, the “self-splicing fitness (ln)” value (30 °C) is -4.15 ± 0.52.
On to UCGUAGCAAUAUUACGAUUC, for which the “self-splicing fitness (ln)” value reads like this: (30 °C) -1.07 ± 0.5; (37 °C) -1.83 ± 1.1.
Regarding CGCCAGCAAUAUUACGAAUA, the “self-splicing fitness (ln)” value (37 °C) is -2.69 ± 0.54.
Still for that read-out and setting: in the case of CUCGAGCAAUAUUACGACAC it was -2.89 ± 0.53.
With CCGUAGCAAUAUUACGAAAA, the “self-splicing fitness (ln)” value (30 °C) was -1.66 ± 0.52.
Take GUGCAGCAAUAUUACGGACC: the “self-splicing fitness (ln)” value (37 °C) was -0.677 ± 0.77.
For UAUUAGCAAUAUUACGCUCC, the “self-splicing fitness (ln)” value (37 °C) is -1.72 ± 0.85.
Same read-out and setting: for CGGUAGCAAUAUUACGGGCC the value was -3.02 ± 0.53.
Regarding AGCAAGCAAUAUUACGAUAA, the “self-splicing fitness (ln)” value by setting is: (30 °C) -2.16 ± 0.12; (37 °C) 0.308 ± 0.11.
For CAGGAGCAAUAUUACGCCAG, for the setting “37 °C”, the “self-splicing fitness (ln)” value is -1.83 ± 0.78.
Turning to AUGGAGCAAUAUUACGAGAG, under “30 °C”, the “self-splicing fitness (ln)” value was -4.35 ± 0.52.
In the case of GAAAAGCAAUAUUACGCGAC, the “self-splicing fitness (ln)” value (30 °C) was -1.78 ± 0.58.
On the same count and under the same terms, for UUGGAGCAAUAUUACGGGCU the value was -4.44 ± 1.
Consider CAUUAGCAAUAUUACGCGUG, for which the “self-splicing fitness (ln)” value (30 °C) is -3.16 ± 0.15 and the “self-splicing fitness (ln)” value (37 °C) was -2.89 ± 0.24.
For UGUAAGCAAUAUUACGUGUG, the “self-splicing fitness (ln)” value is, setting by setting: (30 °C) -1.04 ± 0.085; (37 °C) -0.237 ± 0.095.
For GGGGAGCAAUAUUACGCUAG, where the note is “37 °C”, the “self-splicing fitness (ln)” value was -3.27 ± 0.52.
Take CGCGAGCAAUAUUACGGACG: the “self-splicing fitness (ln)” value (30 °C) is -3.45 ± 0.76.
On to CGCGAGCAAUAUUACGGUCG, for which the “self-splicing fitness (ln)” value runs as follows: (30 °C) -3.27 ± 0.74; (37 °C) -3.25 ± 1.
Regarding CCAUAGCAAUAUUACGCUUC, where the note is “30 °C”, the “self-splicing fitness (ln)” value was -4.22 ± 0.73.
Turning to AGGGAGCAAUAUUACGUGGG, the “self-splicing fitness (ln)” value (37 °C) was -3.84 ± 0.51.
Consider UAAGAGCAAUAUUACGCGCC, for which, under “30 °C”, the “self-splicing fitness (ln)” value is -4.26 ± 1.
As to ACGAAGCAAUAUUACGAGAA, for the setting “37 °C”, the “self-splicing fitness (ln)” value was -2.15 ± 0.5.
Same read-out and setting: for UUUCAGCAAUAUUACGAAGC the value was -1.71 ± 0.65.
Turning to AGGGAGCAAUAUUACGACGC, the “self-splicing fitness (ln)” value (30 °C) was -3.52 ± 0.55.
GCCUAGCAAUAUUACGGCGC: the “self-splicing fitness (ln)” value (30 °C) is -0.67 ± 0.14 and the “self-splicing fitness (ln)” value (37 °C) stood at 0.263 ± 0.18.
Take ACACAGCAAUAUUACGAAAC: the “self-splicing fitness (ln)” value (30 °C) is -3.02 ± 0.23 and the “self-splicing fitness (ln)” value (37 °C) was -1.82 ± 0.22.
For the sequence GGCCAGCAAUAUUACGGCAA, the “self-splicing fitness (ln)” value by setting is: (30 °C) -0.216 ± 0.082; (37 °C) -0.645 ± 0.087.
Turning to UGGGAGCAAUAUUACGUGAU, for the setting “30 °C”, the “self-splicing fitness (ln)” value was -0.572 ± 1.2.
For the sequence AAUGAGCAAUAUUACGACGC, the “self-splicing fitness (ln)” value reads like this: (30 °C) -2.08 ± 0.57; (37 °C) 0.309 ± 0.84.
Taken in the same sequence, the figures for UGCUAGCAAUAUUACGCCUC were -4.92 ± 0.59 and -2.73 ± 0.54.
On the same counts, the results for CCCUAGCAAUAUUACGCAAC are -4.39 ± 0.72 and -3.99 ± 1.
As to CUUAAGCAAUAUUACGUCCC, the “self-splicing fitness (ln)” value was -3.27 ± 1.1 (30 °C) and 0.321 ± 1.2 (37 °C).
As for GUGUAGCAAUAUUACGAGUG, the “self-splicing fitness (ln)” value (37 °C) was -0.845 ± 0.65.
Take GCCAAGCAAUAUUACGUGUC: the “self-splicing fitness (ln)” value is -1.62 ± 0.06 (30 °C) and -0.848 ± 0.075 (37 °C).
